According to PubChem BioAssay AID623995 (National Center for Advancing Translational Sciences (NCATS), 2012):
The inconclusive results got no clear call from the source; some entries with a clear call stand among them for comparison. Where the call is inconclusive, the potency comes from a doubtful curve fit. The source made the active and inactive calls. Calls come from the whole dose curve; as a rule, active = well fitted inhibition curve with a large enough effect; inconclusive = small, poorly fitted or top-dose-only effect; inactive = no such curve, though single readings can be large or run the other way.

The chains behind the UniProt entries cited, without tags or fusion partners.
UniProt O75874, whole entry, looked up: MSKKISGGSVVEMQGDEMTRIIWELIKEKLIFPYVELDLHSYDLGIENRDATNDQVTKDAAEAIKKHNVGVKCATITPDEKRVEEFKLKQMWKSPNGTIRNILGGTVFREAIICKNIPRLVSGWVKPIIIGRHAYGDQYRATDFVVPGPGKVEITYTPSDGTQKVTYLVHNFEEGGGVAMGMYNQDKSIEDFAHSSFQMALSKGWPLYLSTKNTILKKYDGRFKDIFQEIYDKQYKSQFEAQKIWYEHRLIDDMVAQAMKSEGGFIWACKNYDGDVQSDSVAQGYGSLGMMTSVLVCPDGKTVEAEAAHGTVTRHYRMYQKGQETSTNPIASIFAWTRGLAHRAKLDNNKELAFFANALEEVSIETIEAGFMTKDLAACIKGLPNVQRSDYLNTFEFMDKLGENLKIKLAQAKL

biological target: Isocitrate dehydrogenase [NADP] cytoplasmic (Homo sapiens) (UniProt O75874); assay: qHTS for Inhibitors of mutant isocitrate dehydrogenase 1 (IDH1): Cherrypicks in WT IDH1; settings: WT IDH1 enzyme, NADPH diaphorase/resazurin fluorescence; series mostly up to 115 µM; note: nearly all actives have a fitted effect of over 55% in size
In short: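 WT IDH1 at 0.65 nM in 20 mM Tris pH 7.5 with MgCl2, NaCl, BSA, b-ME; 0.06 mM NADP+ and 0.08 mM isocitrate. NADPH coupled to diaphorase/resazurin; resorufin fluorescence read kinetically for 10 min. Compounds titrated 115 uM to 0.20 uM.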
Potency is the fitted concentration of half-maximal effect.

Structure (SMILES)	Potency
O=C(O)c1ccccc1NS(=O)(=O)c1ccc(N/N=C/c2cccc(O)c2O)c([N+](=O)[O-])c1	inconclusive: 28.2 µM [inhibitor, full curve]
CNC(=O)/C(C#N)=C/c1c(N(Cc2ccccc2)Cc2ccccc2)nc2ccccn2c1=O	inactive
Cc1cccc2c1N(CCOc1ccc(C(C)(C)C)cc1)C(=O)C2=O	inactive
O=c1[nH]c(/C=C/c2cccc([N+](=O)[O-])c2)c([N+](=O)[O-])c(=O)[nH]1	inactive
CCOC(=O)CSC1=NC(=O)/C(=C/c2ccc(Br)cc2)S1	active: 70.8 µM
S=C(Nc1cccc2ccccc12)NC1CCCCC1	inconclusive: 7.08 µM [inhibitor, full curve]
Cc1cc(C)c(C#N)c(SCc2[nH]nc3c2C(c2ccc(F)cc2)C(C#N)=C(N)O3)n1 (stereo not given)	inconclusive: 35.5 µM [inhibitor, partial curve, poor fit]
Cn1c2ccccc2c(=O)c2c(=O)n(C3CCCCCC3)c(C3CCCCC3)nc21	active: 14.1 µM
CCCc1cc(N2CCN(C(=O)c3ccco3)CC2)n2c(nc3ccccc32)c1C#N	inconclusive: 70.8 µM [inhibitor, partial curve]
Nc1c(C(=O)NCc2ccccc2)sc2nc(N3CCOCC3)c3c(c12)CCCC3	inconclusive: 35.5 µM [inhibitor, full curve]
C[C@H](CO)N1C[C@H](C)[C@@H](CN(C)Cc2ccc(Cl)c(Cl)c2)Oc2c(NC(=O)C3CC3)cccc2C1=O	inactive
CCCCNc1c(-c2cccc(-c3ccc(OC)cc3)c2)nc2ccc(C)cn12	inconclusive: 22.4 µM [inhibitor, partial curve, poor fit]
Cc1ccc(C)c(N(C)C(=O)c2cc3c(=O)[nH]c4ccc(C)cc4c3s2)c1	inconclusive: 39.8 µM [inhibitor, partial curve, poor fit]
Cc1ccc2c(c1)c1c3n2CCN(C(=O)CCl)C3CCC1 (stereo not given)	inconclusive: 50.1 µM [inhibitor, full curve]
CCOc1ccccc1N(C(=O)c1snc(C(N)=O)c1N)C(C(=O)NC1CCCC1)c1ccco1 (stereo not given)	inactive
CC(C)(C)OC(=O)N1CCC(c2cc(=O)n3[nH]cc(C(=O)Nc4ccc(F)c(Cl)c4)c3n2)CC1	inconclusive: 22.4 µM [inhibitor, full curve, poor fit]
Brc1ccc2c(c1)C(c1cccs1)=NNC(c1cccnc1)=N2	inactive
CC(=O)N1CCN(c2ccccc2NC(=O)c2ccc(-c3cccc([N+](=O)[O-])c3)o2)CC1	inactive

Pulled one by one from the list above, 3 records:
Structure (SMILES)	Potency
Cc1cc(C)c(C#N)c(SCc2[nH]nc3c2C(c2ccc(F)cc2)C(C#N)=C(N)O3)n1 (stereo not given)	inconclusive: 35.5 µM [inhibitor, partial curve, poor fit]
CCOc1ccccc1N(C(=O)c1snc(C(N)=O)c1N)C(C(=O)NC1CCCC1)c1ccco1 (stereo not given)	inactive
CCOC(=O)CSC1=NC(=O)/C(=C/c2ccc(Br)cc2)S1	active: 70.8 µM

Later entries.

Structure (SMILES)	Potency
Clc1ccc(-c2csc(NNC3=NCCCCC3)n2)cc1	inconclusive: 100 µM [inhibitor, single point]
Cc1cc(C)cc(OCCSc2nc(-c3ccc(C(C)(C)C)cc3)nc3cc(=O)[nH]n23)c1	inconclusive: 44.7 µM [inhibitor, full curve]
Cc1ccc(/C=C/C(=O)c2ccc([N+](=O)[O-])o2)cc1	inconclusive: 15.8 µM [inhibitor, partial curve]
O=C(COc1ccccc1/C=C\c1[nH]c(=O)[nH]c(=O)c1[N+](=O)[O-])Nc1ccccc1	inconclusive: 89.1 µM [inhibitor, single point]
CNC(=O)/C(C#N)=C/c1c(N(Cc2ccccc2)Cc2ccccc2)nc2c(C)cccn2c1=O	inactive
O=C(O)c1cc(-c2ccc(-c3c(-c4ccc5c(c4)OCO5)noc3-c3ccsc3)cc2)nc2ccccc12	inconclusive: 89.1 µM [inhibitor, single point]
COc1cccc(Cn2c(=O)n(-c3cccc(Cl)c3C)c(=O)c3c4c(sc32)CN(C(C)=O)CC4)c1	active: 20 µM
Cc1ccc(S(=O)(=O)Oc2ccc3c(c2)O/C(=C\c2cccnc2)C3=O)cc1	inactive
CC(C)(C)c1ccc(C2NC(=O)c3n[nH]c(-c4cccs4)c32)cc1 (stereo not given)	inactive
O=C(O)c1[nH]c2ccccc2c1C(c1cc(Br)ccc1O)c1c(C(=O)O)[nH]c2ccccc12	active: 70.8 µM
CCOC(=O)c1c(NC(=O)/C=C/C(=O)O)sc(C)c1-c1ccc(C)c(C)c1	inconclusive: 79.4 µM [inhibitor, single point]
C=C1CC2C(CCC3(C)C2CCC3(O)C(C)=O)C2(C)CCC(=O)C=C12 (stereo not given)	active: 35.5 µM
COc1ccccc1-c1noc(CSc2nnc(Cc3ccccc3)n2-c2ccc(C)c(C)c2)n1	inactive
Cc1cc(N(CCO)CCO)ccc1C(c1ccc(N(CCO)CCO)cc1C)c1ccccc1Cl	inconclusive: 89.1 µM [inhibitor, single point]
CC(=O)N1CCc2c(sc3c2c(=O)n(-c2ccccc2Cl)c(=O)n3Cc2cccc(C)c2)C1	active: 20 µM
CC(C)(C)c1c(Cl)c(O)c(-c2ccccc2)c(=O)n1-c1ccccc1	inconclusive: 100 µM [inhibitor, partial curve, poor fit]
COc1ccc(C2c3c(-c4ccccc4)n[nH]c3C(=O)N2c2ccc(C(=O)O)cc2)cc1 (stereo not given)	inconclusive: 89.1 µM [inhibitor, partial curve, poor fit]
